Reference: PubChem BioAssay AID686938 (Drosophila RNAi Screening Center, 2013)
Screen: 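Looking for CRAC channel components and the factors controlling them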 (primary screen). System: Drosophila S2R+ cells. Reagent: long dsRNA against Drosophila genes, about 0.25 µg dsRNA per well, roughly 10,000 cells. Timing: 5 days of knock-down before the calcium assay. Treatment: thapsigargin (SERCA pump blocker) to empty calcium stores; entry signal taken 4 min after adding it. Detection: 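Per-well fluo-4 fluorescence in two replicates, unnormalised, measured in resting cells and 4 min after store depletion by the SERCA blocker thapsigargin; ratio of the two present in few wells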. Reading the numbers: calcium entry signal: higher = stronger calcium signal after store depletion; entry to resting ratio: higher = more calcium entry relative to resting level; resting calcium signal: higher = higher resting calcium signal. Hit rule: 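Hit if the duplicate-averaged plate z-score for entry over resting signal is under −3; wells with weak total dye signal (Fmax z < −2) or more than 5 off-targets removed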. Calls: active = strongly reduced calcium entry; inactive = no strong reduction.
The screen tested about 23,000 reagents; this is an unselected part of those that have a named target and a result. In the full data, 75 (0.33%) got an active call. 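Raw plate signals without normalisation; calls rest on plate z-scores that were not deposited; ratio present for only 364 wells.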 Reagents against one gene are numbered here. A plus sign joins genes that one reagent is predicted to hit. Reagent sequences are not shown. The record does not give: the dose of the treatment.

no.	gene knocked down	dsRNA no.	calcium entry signal, replicate 1 (fluorescence units)	calcium entry signal, replicate 2 (fluorescence units)	entry to resting ratio	resting calcium signal, replicate 1 (fluorescence units)	resting calcium signal, replicate 2 (fluorescence units)	outcome
1	CG5114	1	3.03e7	4.01e7		1.40e7	2.79e7	inactive
2	ckn	1	4.82e7	3.41e7		2.34e7	1.78e7	inactive
3	CG3191	1	3.70e7	3.67e7		1.74e7	1.71e7	inactive
4	Sys1	1	4.00e7	3.14e7		2.21e7	1.56e7	inactive
5	CG5746	1	3.75e7	2.95e7		1.84e7	1.40e7	inactive
6	pea	1	2.25e7	2.90e7		1.43e7	1.70e7	inactive
7	cta	1	4.29e7			2.12e7		inactive
8	CG34169	1	2.93e7	4.04e7		1.55e7	1.79e7	inactive
9	Nemp	1	2.92e7	3.03e7		1.49e7	1.40e7	inactive
10	Plod	1	4.95e7	2.81e7		3.19e7	1.36e7	inactive
11	Plod	2	3.00e7	5.33e7		1.61e7	2.31e7	inactive
12	CG12078	1	2.68e7	3.34e7		1.29e7	1.46e7	inactive
13	Tnpo-SR	1	4.71e7			2.75e7		inactive
14	CG5895	1	4.49e7	5.47e7		1.87e7	1.98e7	inactive
15	AGO1	1	2.51e7	2.47e7		1.06e7	1.21e7	inactive
16	qkr58E-2	1	1.86e7	2.66e7		1.06e7	1.20e7	inactive
17	CG7309	1	3.36e7	3.46e7		1.67e7	1.58e7	inactive
18	CG3815	1	3.73e7	3.62e7		1.75e7	1.66e7	inactive
19	CG7778	1	7.73e7			2.83e7		inactive
20	CG16704	1	3.98e7	3.84e7		1.99e7	1.79e7	inactive
21	CG43134	1	4.78e7	3.53e7		2.36e7	1.54e7	inactive
22	Pex11c	1	3.26e7	5.80e7		1.93e7	2.28e7	inactive
23	CG13159	1	3.39e7	3.30e7		1.75e7	1.70e7	inactive
24	Hsp60D	1	3.91e7	2.82e7		1.72e7	1.27e7	inactive
25	Galphaf	1	3.92e7	8.17e7		2.05e7	2.84e7	inactive
26	NimB1	1	4.40e7			2.03e7		inactive
27	Apt1	1	2.21e7	2.45e7		1.26e7	1.25e7	inactive
28	CG5721	1	3.80e7	3.46e7		1.83e7	1.73e7	inactive
29	CG12769	1	3.49e7	3.01e7		1.46e7	1.43e7	inactive
30	Dad1	1	2.35e7	4.33e7		1.26e7	2.02e7	inactive
31	red	1	3.47e7	3.71e7		1.68e7	1.78e7	inactive
32	red	2	4.04e7	3.74e7		2.00e7	1.71e7	inactive
33	PlexA	1	3.39e7	4.52e7		1.56e7	1.96e7	inactive
34	ranshi	1	4.92e7	3.14e7		2.26e7	1.57e7	inactive
35	CG30491	1	2.84e7	2.84e7		1.51e7	1.35e7	inactive
36	CG6885	1	2.71e7	5.15e7		1.57e7	2.15e7	inactive
37	Tudor-SN	1	5.00e7	4.09e7		2.36e7	2.23e7	inactive
38	Pi4KIIIalpha	1	4.24e7	4.28e7	2	2.13e7	1.87e7	inactive
39	SdhC	1	3.27e7	2.78e7		1.55e7	1.46e7	inactive
40	Drgx	1	3.93e7	3.64e7		1.97e7	1.74e7	inactive
41	Drgx	2	4.34e7	3.44e7		1.99e7	1.75e7	inactive
42	CG30392	1	3.64e7	5.01e7		1.70e7	2.62e7	inactive
43	CG31253 + CG31131	1	4.13e7	3.39e7		1.97e7	1.76e7	inactive
44	mod	1	3.21e7	3.38e7		1.48e7	1.62e7	inactive
45	Rfk	1	2.39e7	2.77e7		9.98e6	1.25e7	inactive
46	Ugt302K1	1	2.66e7	2.38e7		1.35e7	1.24e7	inactive
47	CG32181	1	4.69e7	4.00e7		2.85e7	1.77e7	inactive
48	CG9864	1	5.65e7	5.96e7		2.54e7	2.94e7	inactive
49	se	1	2.53e7	3.46e7		1.20e7	1.47e7	inactive
50	NetA	1	3.50e7	3.34e7		1.78e7	1.52e7	inactive
51	RyR	1	2.56e7	1.75e7		1.29e7	1.12e7	inactive
52	REG	1	4.18e7	4.96e7		2.03e7	2.29e7	inactive
53	CG6583	1	3.30e7	2.10e7		1.51e7	1.10e7	inactive
54	alpha-Man-Ia	1	3.29e7	3.97e7		1.58e7	2.02e7	inactive
55	alpha-Man-Ia	2	3.86e7	3.73e7		1.74e7	1.63e7	inactive
56	alpha-Man-Ia	3	3.38e7	3.23e7		1.74e7	1.59e7	inactive
57	alpha-Man-Ia	4	4.33e7	3.55e7		1.96e7	1.61e7	inactive
58	alpha-Man-Ia	5	6.31e7	3.03e7		2.84e7	1.26e7	inactive

Taken from above:
Pi4KIIIalpha, resting calcium signal, replicate 2 (fluorescence units): 1.87e7
Apt1, resting calcium signal, replicate 2 (fluorescence units): 1.25e7
Value of Dad1 under “calcium entry signal, replicate 2 (fluorescence units)”: 4.33e7
Entry for Drgx #2 in “resting calcium signal, replicate 2 (fluorescence units)”: 1.75e7
Ugt302K1, resting calcium signal, replicate 1 (fluorescence units) = 1.35e7
Entry of se in “resting calcium signal, replicate 1 (fluorescence units)”: 1.20e7
